These are yes or no findings as the source states them, for the method shown. Some entries that bind do so weakly or less than the wild type.
Columns and labels:
纤溶酶-α2纤溶酶抑制剂复合物(PIC) [1] = target: 纤溶酶-α2纤溶酶抑制剂复合物(PIC) (UniProt P00747); test: summing-up of the examples
纤溶酶-α2纤溶酶抑制剂复合物(PIC) [2] = target: 纤溶酶-α2纤溶酶抑制剂复合物(PIC) (UniProt P00747); test: indirect ELISA of hybridoma supernatants on coated PIC

Sequences of proteins named here, by UniProt entry; tags and fusion partners are left off. A change or cut given only in a name is not applied to a line headed by its entry.
UniProt P00747: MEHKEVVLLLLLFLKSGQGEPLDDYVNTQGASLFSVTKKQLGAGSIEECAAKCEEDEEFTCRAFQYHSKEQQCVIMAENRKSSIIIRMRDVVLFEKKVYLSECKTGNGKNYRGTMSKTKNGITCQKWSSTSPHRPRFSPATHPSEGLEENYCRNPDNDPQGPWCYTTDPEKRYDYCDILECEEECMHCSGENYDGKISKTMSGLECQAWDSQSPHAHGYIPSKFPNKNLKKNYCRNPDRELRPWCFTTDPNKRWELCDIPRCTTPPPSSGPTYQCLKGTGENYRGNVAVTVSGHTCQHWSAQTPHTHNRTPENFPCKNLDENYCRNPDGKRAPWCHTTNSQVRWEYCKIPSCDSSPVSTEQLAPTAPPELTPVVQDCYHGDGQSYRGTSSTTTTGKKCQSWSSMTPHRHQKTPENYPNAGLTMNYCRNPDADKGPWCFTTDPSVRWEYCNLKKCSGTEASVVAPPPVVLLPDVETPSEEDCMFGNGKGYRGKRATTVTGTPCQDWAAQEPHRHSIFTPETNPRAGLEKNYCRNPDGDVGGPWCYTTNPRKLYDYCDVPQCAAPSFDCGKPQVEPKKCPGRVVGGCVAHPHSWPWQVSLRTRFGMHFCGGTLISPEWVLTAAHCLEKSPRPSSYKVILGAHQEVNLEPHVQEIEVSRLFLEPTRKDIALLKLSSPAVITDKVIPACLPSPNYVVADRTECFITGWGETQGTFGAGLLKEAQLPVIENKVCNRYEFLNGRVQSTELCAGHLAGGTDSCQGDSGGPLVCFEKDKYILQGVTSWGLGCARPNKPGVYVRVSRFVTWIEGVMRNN

B1: PIC抗体(WT1) (antibody, mouse IgG1, kappa, V domains shown)
VH: QVQLQQSGPELVKPGASVKLSCKASGNAFSSSWMNWVKQRPGQGLEWIGRIYPGDGDTNYNGKFKGKATLTVDKSSSTVYMQLSSLTSVDSAVYFCGRGNPTTAYAMDYWGQGTSVTVSS
VL: DIVLTQSPASLAVSLGQRATLSCRASESVDSFGYSFMHWYQQNPGQPPKLLIYRASNLESGIPARFSGSGSRTDFTLTINPVEADDVATYFCQQTNEDPYTFGGGAKLEIKR
B1 was tested, and the binding (纤溶酶-α2纤溶酶抑制剂复合物(PIC) [1]) was “binds” and the binding (纤溶酶-α2纤溶酶抑制剂复合物(PIC) [2]) was “binds”.

B2: PIC抗体(WT2) (antibody, mouse IgG1, kappa, V domains shown)
VH: QVQLQQPGAELVRPGASVKLSCKASGYTFTSSWMHWVKQRPEQGLEWIGYIDPYDSETHYNQKFKDKAILTVDKSSSTAYMQLSSLTSEDSAVYYCARGYDRSFDYWGQGTTLTVSS
VL: DIKMTQSPSSMFASLGERVTITCKASQDIKSFLNWYQQKPWRSPKTLIYYATSLADGVPSRFSGSGSGQDFSLTISSLESDDAATYYCLQHGESPFTFGGGTKLEIKR
B2 was tested, and the binding (纤溶酶-α2纤溶酶抑制剂复合物(PIC) [1]) was “binds” and the binding (纤溶酶-α2纤溶酶抑制剂复合物(PIC) [2]) was “binds”.
